pIC50: −log10 of the molar value. Where two headings read alike, the source gives them in different places. Structures were worked out from names or drawings and are uncertain.
Key:
TYK2 JH2 domain = TYK2 JH2 domain (Homo sapiens (Human), UniProt P29597); assay: TYK2 JH2 NanoBRET assay; format: binding
human JAK1 = human JAK1 (Homo sapiens (Human), UniProt P23458); assay: JAK1 TR-FRET kinase assay; conditions: read-out: JAK1 IC50, JAK1 2.5 nM
human JAK2 = human JAK2 (Homo sapiens (Human), UniProt O60674); assay: JAK2 TR-FRET kinase assay; conditions: read-out: JAK2 IC50, JAK2 0.025 nM
human JAK3 = human JAK3 (Homo sapiens (Human), UniProt P52333); assay: JAK3 TR-FRET kinase assay; conditions: read-out: JAK3 IC50, JAK3 0.0125 nM

Chains of the proteins cited; added tags and fusions are not shown. Residues count along the entry.
UniProt P29597, 589-875 limits assumed: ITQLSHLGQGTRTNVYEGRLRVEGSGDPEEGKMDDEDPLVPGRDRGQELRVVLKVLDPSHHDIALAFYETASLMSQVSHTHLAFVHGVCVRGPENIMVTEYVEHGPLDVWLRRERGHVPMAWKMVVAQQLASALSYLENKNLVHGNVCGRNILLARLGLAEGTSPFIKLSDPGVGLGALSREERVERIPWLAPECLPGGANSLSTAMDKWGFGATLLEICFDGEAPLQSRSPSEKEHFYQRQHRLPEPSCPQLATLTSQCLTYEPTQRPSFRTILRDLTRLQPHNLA
UniProt P23458, whole entry: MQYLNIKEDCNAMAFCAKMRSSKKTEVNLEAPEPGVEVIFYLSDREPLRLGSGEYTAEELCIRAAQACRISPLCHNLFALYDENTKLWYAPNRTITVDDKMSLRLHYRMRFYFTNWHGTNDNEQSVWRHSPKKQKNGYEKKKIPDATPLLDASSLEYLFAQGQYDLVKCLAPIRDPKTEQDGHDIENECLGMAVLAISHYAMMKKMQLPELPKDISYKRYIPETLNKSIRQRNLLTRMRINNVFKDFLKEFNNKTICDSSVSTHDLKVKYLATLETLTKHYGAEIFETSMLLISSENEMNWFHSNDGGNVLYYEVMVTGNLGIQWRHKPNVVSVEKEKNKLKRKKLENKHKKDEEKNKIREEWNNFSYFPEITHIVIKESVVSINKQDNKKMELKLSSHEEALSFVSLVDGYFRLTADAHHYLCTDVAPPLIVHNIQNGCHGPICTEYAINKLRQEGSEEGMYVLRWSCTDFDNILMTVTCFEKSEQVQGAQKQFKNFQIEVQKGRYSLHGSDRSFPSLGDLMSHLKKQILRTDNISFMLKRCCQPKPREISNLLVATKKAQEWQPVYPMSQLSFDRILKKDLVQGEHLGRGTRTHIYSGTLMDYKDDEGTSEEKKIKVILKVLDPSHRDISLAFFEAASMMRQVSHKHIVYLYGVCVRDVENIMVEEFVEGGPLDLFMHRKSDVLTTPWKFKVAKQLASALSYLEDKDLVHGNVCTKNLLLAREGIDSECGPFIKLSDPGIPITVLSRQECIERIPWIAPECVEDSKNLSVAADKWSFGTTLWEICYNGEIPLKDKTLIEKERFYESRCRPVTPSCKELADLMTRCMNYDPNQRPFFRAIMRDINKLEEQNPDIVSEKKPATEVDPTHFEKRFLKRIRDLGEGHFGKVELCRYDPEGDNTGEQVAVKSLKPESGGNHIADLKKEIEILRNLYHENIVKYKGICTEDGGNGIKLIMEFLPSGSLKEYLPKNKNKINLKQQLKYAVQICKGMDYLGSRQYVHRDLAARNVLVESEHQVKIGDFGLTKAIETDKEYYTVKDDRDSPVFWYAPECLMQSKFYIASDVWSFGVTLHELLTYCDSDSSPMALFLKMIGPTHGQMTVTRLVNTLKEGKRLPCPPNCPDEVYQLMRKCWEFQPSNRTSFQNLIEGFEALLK
UniProt O60674, whole entry: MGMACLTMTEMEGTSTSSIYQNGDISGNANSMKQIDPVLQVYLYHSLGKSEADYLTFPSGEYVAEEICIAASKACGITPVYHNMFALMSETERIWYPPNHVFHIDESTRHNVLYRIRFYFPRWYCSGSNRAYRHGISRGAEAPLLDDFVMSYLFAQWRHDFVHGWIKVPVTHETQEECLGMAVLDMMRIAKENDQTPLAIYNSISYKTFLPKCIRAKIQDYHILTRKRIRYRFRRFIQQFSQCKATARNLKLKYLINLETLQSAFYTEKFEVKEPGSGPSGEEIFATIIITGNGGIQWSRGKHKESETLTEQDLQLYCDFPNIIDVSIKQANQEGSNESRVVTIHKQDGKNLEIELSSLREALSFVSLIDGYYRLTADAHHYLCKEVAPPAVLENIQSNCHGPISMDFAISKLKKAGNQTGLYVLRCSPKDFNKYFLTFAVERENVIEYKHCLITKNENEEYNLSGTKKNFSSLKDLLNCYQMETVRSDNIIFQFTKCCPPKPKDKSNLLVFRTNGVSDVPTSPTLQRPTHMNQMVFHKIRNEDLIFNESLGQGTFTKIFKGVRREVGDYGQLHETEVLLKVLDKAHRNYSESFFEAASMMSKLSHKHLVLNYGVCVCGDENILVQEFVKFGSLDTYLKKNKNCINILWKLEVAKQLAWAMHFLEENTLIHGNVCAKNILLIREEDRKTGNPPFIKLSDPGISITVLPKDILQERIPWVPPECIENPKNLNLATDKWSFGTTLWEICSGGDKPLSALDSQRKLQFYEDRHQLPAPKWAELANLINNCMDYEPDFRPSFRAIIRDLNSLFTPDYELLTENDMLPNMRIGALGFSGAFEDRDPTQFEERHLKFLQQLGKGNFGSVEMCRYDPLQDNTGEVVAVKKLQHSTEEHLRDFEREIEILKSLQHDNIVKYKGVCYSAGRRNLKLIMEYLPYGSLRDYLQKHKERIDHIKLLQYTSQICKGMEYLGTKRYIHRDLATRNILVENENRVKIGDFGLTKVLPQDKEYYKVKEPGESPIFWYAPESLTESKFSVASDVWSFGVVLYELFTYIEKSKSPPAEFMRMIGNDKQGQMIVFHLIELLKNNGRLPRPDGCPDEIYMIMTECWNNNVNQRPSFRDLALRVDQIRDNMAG
UniProt P52333, whole entry: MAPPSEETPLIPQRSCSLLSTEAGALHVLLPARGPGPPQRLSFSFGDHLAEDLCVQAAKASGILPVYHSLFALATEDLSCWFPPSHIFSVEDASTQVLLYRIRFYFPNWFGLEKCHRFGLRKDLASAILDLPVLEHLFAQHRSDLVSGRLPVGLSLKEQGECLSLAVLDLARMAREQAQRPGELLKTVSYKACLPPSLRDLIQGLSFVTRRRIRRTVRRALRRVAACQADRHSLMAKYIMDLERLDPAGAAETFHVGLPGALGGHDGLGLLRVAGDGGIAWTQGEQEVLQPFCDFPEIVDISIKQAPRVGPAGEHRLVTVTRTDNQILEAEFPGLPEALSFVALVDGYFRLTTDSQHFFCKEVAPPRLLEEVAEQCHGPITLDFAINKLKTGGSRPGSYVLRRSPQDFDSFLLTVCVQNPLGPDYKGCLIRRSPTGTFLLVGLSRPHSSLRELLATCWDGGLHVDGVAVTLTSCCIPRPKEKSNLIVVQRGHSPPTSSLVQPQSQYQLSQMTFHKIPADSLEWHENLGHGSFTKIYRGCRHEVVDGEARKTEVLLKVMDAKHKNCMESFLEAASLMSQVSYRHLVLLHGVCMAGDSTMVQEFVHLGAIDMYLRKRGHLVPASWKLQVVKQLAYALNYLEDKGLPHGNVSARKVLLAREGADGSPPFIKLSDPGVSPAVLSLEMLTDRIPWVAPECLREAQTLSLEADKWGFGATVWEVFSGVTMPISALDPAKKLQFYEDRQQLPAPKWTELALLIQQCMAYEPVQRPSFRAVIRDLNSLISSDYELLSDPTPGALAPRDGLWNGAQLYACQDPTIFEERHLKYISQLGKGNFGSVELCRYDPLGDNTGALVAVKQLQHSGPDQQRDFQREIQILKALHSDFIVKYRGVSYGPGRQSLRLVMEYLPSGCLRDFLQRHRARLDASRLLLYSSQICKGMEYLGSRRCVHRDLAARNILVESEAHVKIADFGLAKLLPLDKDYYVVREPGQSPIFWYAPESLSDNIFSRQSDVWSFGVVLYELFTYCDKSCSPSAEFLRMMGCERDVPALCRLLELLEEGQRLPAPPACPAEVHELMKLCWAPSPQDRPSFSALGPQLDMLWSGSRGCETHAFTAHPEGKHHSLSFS

pIC50 (TYK2 JH2 domain; read-out: TYK2 IC50, Table 20) | pIC50 (human JAK1) | pIC50 (human JAK2) | pIC50 (human JAK3) | SMILES | IC50 (TYK2 JH2 domain; read-out: IC50 (nM), TYK2 activity, HEK293T cells, Table 19) [nM]
< 6.30 | < 6.30 | < 6.30 | < 6.30 | CCC(=O)c1cnc(NC(=O)[C@@H]2C[C@@H]2C(=O)O)cc1Nc1cccc(-c2ncn(C)n2)c1OC | –
– | – | – | – | COc1c(Nc2cc(Nc3ccc(F)cn3)ncc2CO)cccc1-c1ncn(C)n1 | > 500

— patent US20230295119A1, “SUBSTITUTED PYRIDINES FOR THE TREATMENT OF INFLAMMATORY DISEASES” (GOSSAMER BIO SERVICES, INC., priority 2020, published 2023)
